Source: US20160331708A1 (priority 2014, published 2016)

System: Bacillus subtilis 168
Assay: Antibiotic MIC tests in microtiter plates
Settings: antibiotic against B. subtilis in the presence of anthranilic acid (2.2 mM)

For `CC1=C(C(=O)O)N2C(=O)[C@@H](NC(=O)[C@H](N)c3ccccc3)[C@H]2SC1` [Cephalexin (1H2O), Cephalexin], the “MIC with anthranilic acid (2.2 mM)” value was 0.061 µg/mL.
